Results as given in article PMC13043812.
No constants are given. Whether binding was seen depends on the method and setting. Binding seen in cells or lysates may run through a third protein. Here binding means that the protein was enriched with, or labelled near, the bait; the list need not be complete.

The chains behind the UniProt entries cited, without tags or fusion partners. Where a name states a change or a piece, a line headed by the entry shows the natural chain unless it says otherwise.
UniProt P96874: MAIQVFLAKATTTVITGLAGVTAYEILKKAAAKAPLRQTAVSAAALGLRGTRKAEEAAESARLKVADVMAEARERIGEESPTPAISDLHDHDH

B1: Citrate (Pro-3S)-lyase beta subunit (protein, UniProt P9WPE1 1-273)
chain: MNLRAAGPGWLFCPADRPERFAKAAAAADVVILDLEDGVAEAQKPAARNALRDTPLDPERTVVRINAGGTADQARDLEALAGTAYTTVMLPKAESAAQVIELAPRDVIALVETARGAVCAAEIAAADPTVGMMWGAEDLIATLGGSSSRRADGAYRDVARHVRSTILLAASAFGRLALDAVHLDILDVEGLQEEARDAAAVGFDVTVCIHPSQIPVVRKAYRPSHEKLAWARRVLAASRSERGAFAFEGQMVDSPVLTHAETMLRRAGEATSE
B2: Rv0887c (protein, UniProt P9WKQ3 1-170)
chain: MSLSGPRIGRAHQQQGDTMAINVEPALSPHLVVDDAASAIDFYVKAFDAVELGRVPGPDGKLIHAALRINGFTVMLNDDVPQMCGGKSMTPTSLGGTPVTIHLTVTDVDAKFQRALNAGATVVTALEDQLWGDRYGVVADPFGHHWSLGQPVREVNMDEIQAAMSSQGDG

Biological target: PacL1 protein fused to a C-terminal ALFA tag (M. tuberculosis) (UniProt P96874)
Assay: proximity labelling

Binder | binding
B1 | binds
B2 | binds
